The record followed here is US20070031832A1.

Amino acid sequences for entries named in this document (tags omitted). Residues count along the entry.
UniProt P05412, residues 250-331: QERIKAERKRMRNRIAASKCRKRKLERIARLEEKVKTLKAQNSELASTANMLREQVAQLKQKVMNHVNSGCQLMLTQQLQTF

The assay addresses JUN1 (UniProt P05412). The assay can be described thus: yeast forward two-hybrid (peptide in pDD bait, JUN1 prey), growth in the absence of uracil.

These are yes or no findings as the source states them, for the method shown. Some binding calls cover weakened binding; strength is not graded here.

As to RSDYKDDDDNTPHSSDGHNNP [Peptide 32], the binding result is reported as “binds”. With RSDYKDDDDKAYQSIKWPM [Peptide 79] the entry was “binds”; with RSDYKDDDDKLYQSLLTATKELLFVAPVAKAFTSCD [Peptide 24], “binds”.

B1: Peptide 58 (peptide)
peptide: RSDYKDDDDKAYQSIMAVAAQQPVAFLVGRQRRRGQVGIDSGDQHLRTPLFHELCRRRPCSLAWYQLMHRYRY
B1: the binding entry is reported as “binds”.

B2: Peptide 4 (peptide)
peptide: RSDYKDDDDKAYQSMFCESRFLDNASAPAMRNAKRRSEERVLCNLTVHRKHILHKITSDDLFRTAFCRNPFIFYGHKMMRMID
Take B2: the binding entry is “binds”.

For the molecule SDYKDDDDKAYQSIHPRLTK [Peptide 43], the binding result is “binds”. As for RSDYKDDDDKGLQGRRRQGYQSIKP [Peptide 36], the entry is “binds”; as for RSDYKDDDDKIYSSILWGTKWCVLLVITP [Peptide 20], “binds”. With RSDYKDDDDKAYQSINSSPVLPENSQELSLHLKQHVTKS [Peptide 34] the entry was “binds”; with RSDYKDDDDKAYQSIKWPM [Peptide 33], “binds”; with RSDYKDDDDKAYQSIIANEEEREKNFASSKKDGSYTDLL [Peptide 8], “binds”. RSDYKDDDDKANQLPKILAGRLIFIKC [Peptide 60]: the binding result is “binds”.

B3: Peptide 66 (peptide)
peptide: RSDYKDDDDKAYQSIIGAGKSTLIKALTGVYHADRGTIWLEGQAISPKNTAHAQQCRRRPCSLTWYQLMHRYRY
Regarding B3, the binding entry is on record as “binds”. With RSDYKDDDDKAYQSSTGSAAILFNFRRMGIVIIIQI [Peptide 80] the entry was “binds”.
